Article PMC7532662
No constants are given. Whether binding was seen depends on the method and setting. Binding seen in cells or lysates may run through a third protein. A result given as binding can be weak or reduced; the word gives no strength. Tags and fused reporters may be left off the sequences shown.

Target: T1, SYTL4-GFP (UniProt Q96C24)
T1 sequence: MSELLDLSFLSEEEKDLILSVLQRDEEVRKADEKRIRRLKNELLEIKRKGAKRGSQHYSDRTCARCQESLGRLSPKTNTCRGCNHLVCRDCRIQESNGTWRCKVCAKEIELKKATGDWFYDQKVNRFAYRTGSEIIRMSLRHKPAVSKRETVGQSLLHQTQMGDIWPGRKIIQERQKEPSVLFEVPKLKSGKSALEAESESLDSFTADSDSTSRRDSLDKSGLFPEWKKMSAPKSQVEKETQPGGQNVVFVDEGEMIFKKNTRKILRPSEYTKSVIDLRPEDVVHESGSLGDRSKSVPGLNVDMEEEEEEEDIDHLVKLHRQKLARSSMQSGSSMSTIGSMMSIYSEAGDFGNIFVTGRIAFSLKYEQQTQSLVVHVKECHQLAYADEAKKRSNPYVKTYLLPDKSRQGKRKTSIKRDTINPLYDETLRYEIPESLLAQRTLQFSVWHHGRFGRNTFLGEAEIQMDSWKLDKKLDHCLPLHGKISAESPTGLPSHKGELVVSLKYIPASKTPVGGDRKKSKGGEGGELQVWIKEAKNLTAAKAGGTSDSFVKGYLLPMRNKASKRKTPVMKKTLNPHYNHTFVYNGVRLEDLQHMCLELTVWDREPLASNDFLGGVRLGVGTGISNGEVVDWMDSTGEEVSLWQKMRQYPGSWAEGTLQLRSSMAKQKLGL
Test: co-IP; lysates of MDA-MB-231 (SYTL4-GFP) or 293T (D1/D2/D3-GFP) cells in Western/IP lysis buffer, anti-GFP nanobody-coated agarose, overnight at 4 °C, western blot

α-tubulin, endogenous
binding: binds
